From PubChem BioAssay AID1508600 (Functional Genomics Laboratory (NCATS/FGL), 2020)
Hit rate of the full screen: of about 53,000 sequences, about 3,700 (7%) were called active.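 How the source made its calls: active means gene knockdowns whose robust z-score for IL-1 alpha signal is at least 2 or at most -2, so actives lie on both sides; inactive means the rest.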 Some of the results follow.

Test: Components of the Cytosolic LPS Sensing Pathway: Gene Identification via Genome-wide siRNA Screen;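 further: robust z of the log signal after scaling to non-targeting control siRNA wells of the plate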
Conditions: RAW264.7 macrophages, IL-1a HTRF, actives lie on both sides, screened at 100 nM (by protocol), cells primed 5 h with Pam3CSK4 first
Procedure, shortened: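 Cells (RAW264.7, 1×10^4 per well) were transfected with siRNA at 100 nM and cultured 48h at 37 degrees C. Pam3CSK4 was added for 5 hours; LipidA transfection followed for 24 hour. IL-1a was then measured by HTRF.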

Sequence	z-score
GGUGGAAGAGAAACUCAGGTT against Mill2	inactive: -1.05
GCCACUCUUUAAGAAUCUATT against Abcf1	inactive: -0.552
CCAGACCUAUACUAUGAAUTT against Trappc12	inactive: -0.655
GGACCGUAUCCCAAAAGAUTT against Klf1	inactive: -0.968
CGUUUGAUGAGACCAUGUATT against Vwf	inactive: -0.459
GCAAGGAAGGCUUUCAAGATT against Gsta1	inactive: -0.00594
GAUGACUAGCUCUACUUUATT against Olfr738	inactive: -0.0882
GGAGAACCUGCUGAAGGACTT against Itgb3	inactive: -1.04
GGUUGUCUACUUCACCGCUTT against Slc6a6	inactive: 0.0139
CGAGGUACUCCAGAAUAGATT against Mstn	inactive: 1.28
CCUAAAGGUUCCCAACAGUTT against Serpinb3d	inactive: -0.517
GCCCUUUGGAAGAAUACUCTT against Golt1b	inactive: -1.12
GGACAUGGAUUUGAUAGACTT against Acaa2	inactive: -1.4
GCUCUACUCCUUACCUAGUTT against Nkain1	inactive: 0.364
GGAAAAAAGGUCUGUAAAUTT against Ubl4b	inactive: 0.223
GCAAAUUUUAUAUGCGACUTT against Glipr1	inactive: -0.561
GCUAAGCGAAGAGUUUAACTT against Dlgap3	inactive: 0.691
GGCUGUGAAUUGUUAACUATT against Stard4	inactive: -0.678
GCGAAGAUCACCAUGUCUCTT against Oosp1	inactive: -0.687
GCGUUUGGGCCGGAAGAAATT against Smo	inactive: 0.57
GGUGGCAGUGAAAGUCAUUTT against Snrk	inactive: -0.816
CCUUGGUCACCGAAUUUAUTT against Olfr152	inactive: -1.26

Reprinted at random: five records from the list
Sequence	z-score
GCUAAGCGAAGAGUUUAACTT against Dlgap3	inactive: 0.691
GGUUGUCUACUUCACCGCUTT against Slc6a6	inactive: 0.0139
CCUUGGUCACCGAAUUUAUTT against Olfr152	inactive: -1.26
GCCCUUUGGAAGAAUACUCTT against Golt1b	inactive: -1.12
CCUAAAGGUUCCCAACAGUTT against Serpinb3d	inactive: -0.517

Remaining list, next part

Sequence	z-score
GCCUGGCCUUUCCAAUAUCTT against Gm16367	inactive: -1.24
CCGCAUGAAGAGCAACCACTT against Hgs	inactive: -0.637
CCACCUUUAUUCAAAAUCGTT against Mmp20	inactive: -0.451
GGUGGUGUCAACCUUAAAATT against Nrsn1	inactive: 0.253
GGAGACAUGGCAUCCAAAUTT against Cnr1	active: 3.14
GCGAGUUGUUUCCAUAGUUTT against Gpr22	inactive: -0.388
GGCCAAAUUAGAAAAAGUCTT against Polr3e	inactive: -0.00692
CCAUCUCUUACUAUCCAUGTT against Cmbl	inactive: -1.03
GGUGCUGUGGUUAAAAUGATT against Pgm5	inactive: 0.0668
GCUGCUCAGCCAUACCUUGTT against Nlrp14	inactive: 0.148
GGGUCAUGUACAAUCUCUUTT against Bbc3	inactive: 0.22
GGGCAACUCUGCAUACUGUTT against Nell1	inactive: 0.305
GGCGAUGAUCCGAAAACAGTT against Elmod1	inactive: 0.218
GGCCGAGUACAAACGUGGATT against Atg9a	active: 2.77
GGUCUCAGAAGUGGUUUUCTT against Mettl4	inactive: 0.725
CGAAGGGCUUUAGCUUGGATT against Capn11	inactive: 0.647
GUCCUGGAUAUGCUCCUGUTT against Olfr544	inactive: -0.435
GGCUUCAUGCUACACAGAUTT against Soat2	inactive: 1.66
GGUAUUUGAUUCCAAAUGCTT against Tbc1d23	inactive: 0.546
GCCAUACCCUGAAUUACCATT against Ndnf	active: -2.01
GGAUUACAGGAAGUUCUGGTT against Stap2	inactive: 1.5
GGAUGCUCUCUUUACUGACTT against Inpp5j	inactive: 0.992

Sequence	z-score
GGUGAAGAAGAUGUGGACUTT against Pth2r	inactive: -0.101
GGUUUACUGGUAAUUUUCATT against Fnbp1l	inactive: 0.948
CGUAAGAUGAAAGCUAUUGTT against Mtx2	inactive: -0.567
GGUAUCUACACCAAACUUATT against Klk1b5	inactive: 0.685
GGAAGAACCUUGUUUGUAUTT against Sectm1b	inactive: -1.78
GGGUGACAGGUUGAUCUCATT against Tcn2	active: -2.11
GGCUUUCUUUGCCAUGACCTT against Copg1	active: -2.93
GCACAAGAGGUAUCCUUGCTT against Gm5111	inactive: 0.000682
CGAGCAGAGUUUUUGAAUATT against Cald1	inactive: -0.923
GGAAAUUUUCAAGCUCAAGTT against Gsdmd	active: -2.44
GUACUGAUACUAGGCUCCUTT against Olfr1387	inactive: 0.492
GGAGAUUUACUGCUCGCUGTT against Pik3r6	inactive: 0.0343
CGCUAUGAAACCUCACUAATT against E2f1	inactive: -0.598
GAAAAUCUAAGGAUCCUUGTT against Vmn1r179	inactive: 0.402
CGUGAGGUUAUGAUGUAUUTT against Gm5444	inactive: -1.3
CCAUUAUGAGUAUAGUUGCTT against Ufm1	inactive: -1.34
GGACUCCACUCCAAAUACATT against Tnfsf8	inactive: 0.114
GGGUUUUUACAUUCAGAAGTT against Trib2	inactive: 0.121
GGUAAUGAAGGAACUGGAUTT against S100a1	inactive: 0.0105
GCUCAGGUAUCUUCGAUUATT against Zfp975	inactive: 0.842
GGCUUACAAUGUGAUUUACTT against Cd7	inactive: 1.92
GGGACCACUCCUUCAUCACTT against A630001G21Rik	inactive: 0.0374

Rewritten as labelled records: part of the list above
GCCACUCUUUAAGAAUCUATT against Abcf1
  z-score: inactive: -0.552
CCAGACCUAUACUAUGAAUTT against Trappc12
  z-score: inactive: -0.655

Next entries follow:

Sequence	z-score
GCCUCACUUUGCCAUGCAUTT against Pou4f1	inactive: -1.78
GGGAUGAAAUCAAUUGUACTT against Lrp12	inactive: -0.226
GGGCCCAGUUGAUCAAAGATT against Ttc29	inactive: -0.158
GGACAACUCGAUUUUAUCCTT against Nudt15	inactive: 1.03
GGAAUCAGAUACAAAGGAGTT against Sil1	inactive: 0.265
GGCCAGAGACAGUUAUCUUTT against Sptssb	active: 2.43
GUGGCCAAAACAACAUGCATT against Olfr1348	inactive: -0.291
GGAAGUCGAGGUAUACACUTT against Pax2	inactive: 0.0774
GGACAUUGACCUGUUCGGCTT against Eef1d	inactive: 0.952
GGAUGUCAGAUUUGUCAGCTT against Trpm7	inactive: -0.439
CCUAAACCCUCAGUUCUCUTT against Slfnl1	inactive: -1.22
GGAGAUAAAGUCUUAUCACTT against Misp	active: -2.05
GGGAGACUCCUUUUGCACUTT against Wnt1	inactive: 0.574
GCCCUGAGAAAAAGCUCAUTT against Vmn1r212	inactive: -1.49
GGUGCUGAGUUGGUCUUAUTT against Tbc1d25	inactive: -0.264
GCAGUGAUCCAUGAGCCUATT against Eif5a	active: 4.64
CCUUGUACACGGAUUGAAUTT against Itga6	inactive: -0.192
GCAAUUAGUCCCUAUUUACTT against Vps41	inactive: 0.979
CCUUCUACCUCACCUUACGTT against Tmem186	inactive: -1.23
GCUGUUAGCCUUAAAGUCATT against Hibch	inactive: 0.144
GCAGUAACCGUGACCAGAUTT against Slc35a5	inactive: -0.32
CGAAUUUACUUCAGACUUCTT against Crybg1	inactive: 0.168

Sequence	z-score
GCAAUGCAGUACUAAACUCTT against Coq8a	inactive: 0.654
GGAGAUUUAUUAAACUGGATT against Ell2	inactive: 0.982
GGAUAGAAUGGACUUUGAATT against Ulk2	inactive: 0.143
GCUGAGGGUUGAUUAGUGGTT against H2-Bl	inactive: 0.608
GGAGAGUCCUUCUGUGACUTT against Spsb3	inactive: -1.38
GCCCAAUGUCUCAGAUUAUTT against Dgkg	inactive: 0.0684
GGACUGGUAUUCAAAGAGGTT against Krt9	inactive: 0.83
GGACCUCAUCAAGCUAUGUTT against Rbms3	inactive: -1.73
GCUACAGCUAUAUCGCUAUTT against Cnot8	inactive: 0.625
GGCAAUUUGGAUACCAGGATT against Zfp24	inactive: -0.563
GCUUACCUGGUCUUGGGCATT against Dnajc30	inactive: 0.348
GGUCUUCAACAACAUUAUCTT against Hid1	inactive: 1
GGUUACCAAAAAAAGAGUUTT against Xrn1	inactive: 0.639
CCGUUUCCCUCUAAAGAAATT against Mphosph6	inactive: 0.214
GGUUGAAGGAGACAACAUUTT against Fzd6	inactive: 0.626
GCUACUCUUACAAGCAAUATT against Rnf111	inactive: -0.368
GGAGUUAAAUACUGAGUUUTT against Csnk1g3	inactive: 0.499
GGCAGUUUCAAUGAAAGAATT against Cnn2	inactive: 0.705
GGAUAUAAACGGGUUAACATT against Ltbp1	inactive: 0.297
